From PMC5066947, “Voltage-Dependent Anion Channel-1, a Possible Ligand of Plasminogen Kringle 5” (PLoS ONE, 2016)
These are yes or no findings as the source states them, for the method shown. Some results given as binding are weak or reduced against the parent protein; the word gives no strength.

Amino acid sequences for entries named in this document (tags omitted). Residues count along the entry.
UniProt P00747, residues 480-563: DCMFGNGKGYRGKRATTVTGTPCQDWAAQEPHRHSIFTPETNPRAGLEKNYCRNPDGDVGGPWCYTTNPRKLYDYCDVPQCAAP

Biological target: recombinant plasminogen Kringle 5 (human) (UniProt P00747)
Test: phage display panning; Ph.D.-7 library panned four rounds on an ELISA plate coated with Kringle 5, an uncoated blocked well as control group; clones of both groups sequenced; only the target purified

Binder | binding
PTNQHHL [Ph.D.-7-9] | no binding
MPVGAFK [Ph.D.-7-11] | no binding
FGAFTPH [Ph.D.-7-14] | no binding

Biological target: recombinant plasminogen Kringle 5 (human) (UniProt P00747)
Test: ELISA; phage ELISA: wells coated with 100 μL of 150 μg·mL^-1 Kringle 5, blocked with BSA and streptavidin; serial dilutions of phage clone, 2 h at room temperature; HRP-marked anti-M13 antibody, TMB; uncoated blocked wells as control; only the target purified

Binder | binding
IGNSNTL [Ph.D.-7-1] | binds
LKLGEKW [Ph.D.-7-2] | binds
LPWQIHN [Ph.D.-7-3] | binds
VKSTQYT [Ph.D.-7-10] | binds
DELHKAR [Ph.D.-7-12] | binds
